# Results reported in US7326551B2, “Cloning and sequencing of pyruvate decarboxylase (PDC) genes from bacteria and uses therefor” (University of Florida Research Foundation, Inc., priority 2001, dated 2008).
# Sequences of proteins named here, by UniProt entry; tags and fusion partners are left off.
# UniProt P06672, whole entry I317V: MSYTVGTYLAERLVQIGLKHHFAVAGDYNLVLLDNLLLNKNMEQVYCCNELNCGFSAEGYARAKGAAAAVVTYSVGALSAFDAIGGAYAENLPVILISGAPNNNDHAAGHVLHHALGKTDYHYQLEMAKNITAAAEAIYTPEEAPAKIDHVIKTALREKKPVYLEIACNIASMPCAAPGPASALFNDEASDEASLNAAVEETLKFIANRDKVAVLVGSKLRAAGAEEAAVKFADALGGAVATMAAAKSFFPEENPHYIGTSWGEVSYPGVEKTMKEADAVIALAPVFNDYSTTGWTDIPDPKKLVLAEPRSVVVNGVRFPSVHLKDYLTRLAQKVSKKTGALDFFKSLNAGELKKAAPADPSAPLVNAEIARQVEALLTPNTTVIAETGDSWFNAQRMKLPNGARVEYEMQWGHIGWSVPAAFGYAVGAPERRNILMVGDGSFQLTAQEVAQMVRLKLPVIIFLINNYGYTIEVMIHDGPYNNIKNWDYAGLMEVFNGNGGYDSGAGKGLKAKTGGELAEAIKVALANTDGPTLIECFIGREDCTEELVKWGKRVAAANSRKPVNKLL
# At least one structure is not confirmed: it was looked up by name or label, or the drawing left a doubt.
# Legend:
# Test in all cases: PDC activity by ADH-coupled assay, kinetic parameters for pyruvate
# Format in all cases: biochemical
# [1] = target: T1, Zymobacter palmae pyruvate decarboxylase (ZpaPDC), recombinant, wild type, SEQ ID NO:2 (Zymobacter palmae, UniProt Q8KTX6)
# T1 construct: coupled test with yeast ADH
# T1 sequence (Q8KTX6 1-556): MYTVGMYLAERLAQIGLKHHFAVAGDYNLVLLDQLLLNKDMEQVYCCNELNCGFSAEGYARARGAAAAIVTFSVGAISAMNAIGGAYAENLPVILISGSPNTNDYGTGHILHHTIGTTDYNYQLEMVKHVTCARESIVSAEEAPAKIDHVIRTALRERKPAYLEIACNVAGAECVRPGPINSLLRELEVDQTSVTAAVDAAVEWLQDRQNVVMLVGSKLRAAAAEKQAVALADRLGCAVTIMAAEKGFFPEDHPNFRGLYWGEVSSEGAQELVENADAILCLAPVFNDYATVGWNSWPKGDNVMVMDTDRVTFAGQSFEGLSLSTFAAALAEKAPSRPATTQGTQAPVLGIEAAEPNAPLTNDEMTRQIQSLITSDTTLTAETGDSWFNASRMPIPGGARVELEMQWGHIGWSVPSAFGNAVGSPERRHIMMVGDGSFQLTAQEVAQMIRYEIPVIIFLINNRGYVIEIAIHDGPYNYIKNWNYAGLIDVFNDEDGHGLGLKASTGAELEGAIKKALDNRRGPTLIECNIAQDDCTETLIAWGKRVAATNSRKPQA
# Experimental: (i) Purification of Z. palmae PDC—Z. palmae and E. coli DH5α (pJAM3440) cells were grown to stationary phase and harvested by centrifugation at 10,000×g (10 min, 4° C.). Cells (12 to 15 g wet wt) were resuspended in 6 volumes of 50 mM sodium phosphate buffer at pH 6.5 containing 1 mM TPP and 1 mM MgCl2 (buffer A) and passed through a chilled French pressure cell at 20,000 lb per in^2. Cell debris was removed by centrifugation at 16,000×g (20 min, 4° C.). Cell lysate was heated to 60° C. for 30 min, chilled on ice for 15 min, and centrifuged at 16,000×g (30 min at 4° C.) to remove denatured polypeptides. […]
# PDC Quantitation and Enzyme Activity Assay—Polypeptide concentration was determined using Bradford reagent with bovine serum albumin as the standard (BioRad). PDC activity was measured by the coupled assay with baker's yeast alcohol dehydrogenase (ADH) (Sigma-Aldrich, St. Louis, Mo.) as previously described (11). The reaction mixture contained 0.15 mM NADH, 5 mM MgCl2, 0.1 mM TPP, 5 mM pyruvate, and 10 U ADH in 50 mM sodium citrate buffer at pH 5.0 and was measured at 25° C. unless otherwise indicated. […]
# (§1) As a further comparison, the kinetic constants of all four bacterial PDC polypeptides were determined at their pH optimum as well as at pH 7.0 (Table 3). […]
# [2] = target: T2, Acetobacter pasteurianus pyruvate decarboxylase (ApaPDC), recombinant, wild type, SEQ ID NO:4 (Acetobacter pasteurianus, UniProt Q8L388)
# T2 construct: coupled test with yeast ADH
# T2 sequence (Q8L388 1-557): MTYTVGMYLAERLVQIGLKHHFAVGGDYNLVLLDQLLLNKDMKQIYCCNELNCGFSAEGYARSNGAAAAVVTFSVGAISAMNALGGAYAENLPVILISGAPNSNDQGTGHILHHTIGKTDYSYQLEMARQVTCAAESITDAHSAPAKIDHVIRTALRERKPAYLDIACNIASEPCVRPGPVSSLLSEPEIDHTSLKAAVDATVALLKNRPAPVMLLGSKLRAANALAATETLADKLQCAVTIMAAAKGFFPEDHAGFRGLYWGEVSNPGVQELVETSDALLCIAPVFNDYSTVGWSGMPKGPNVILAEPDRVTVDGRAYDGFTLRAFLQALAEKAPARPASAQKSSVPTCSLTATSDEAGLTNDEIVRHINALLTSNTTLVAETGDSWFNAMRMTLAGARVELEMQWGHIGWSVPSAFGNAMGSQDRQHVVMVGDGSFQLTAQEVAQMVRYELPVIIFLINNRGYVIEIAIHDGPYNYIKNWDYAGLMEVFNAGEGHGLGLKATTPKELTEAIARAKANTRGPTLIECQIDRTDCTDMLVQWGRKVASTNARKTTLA
# Text: (ii) Purification of A. pasteurianus PDC—PDC was purified from A. pasteurianus and E. coli ER1648(pJAM304) using heat-treatment, Q-Sepharose, Superdex 200, and hydroxyapatite as described for the Z. palmae PDC with the following modifications. Cells were passed through a French pressure cell at 30,000 lb per in^2. The PDC activity, which was eluted at 0.17 to 0.26 M NaCl from the Q-Sepharose column, was pooled and concentrated by dialysis against PEG8000 prior to loading onto the Superdex 200 column.
# (§2) PDC Quantitation and Enzyme Activity Assay—Polypeptide concentration was determined using Bradford reagent with bovine serum albumin as the standard (BioRad). PDC activity was measured by the coupled assay with baker's yeast alcohol dehydrogenase (ADH) (Sigma-Aldrich, St. Louis, Mo.) as previously described (11). The reaction mixture contained 0.15 mM NADH, 5 mM MgCl2, 0.1 mM TPP, 5 mM pyruvate, and 10 U ADH in 50 mM sodium citrate buffer at pH 5.0 and was measured at 25° C. unless otherwise indicated. One unit of enzyme activity is defined as the amount of enzyme that generates 1 μmol of acetaldehyde per min.
# As a further comparison, the kinetic constants of all four bacterial PDC polypeptides were determined at their pH optimum as well as at pH 7.0 (Table 3). This approach was chosen to analyze the bacterial PDC enzymes to more closely reflect the neutral cytosol of recombinant hosts used previously for high-level ethanol production (e.g. E. coli, Erwinia spp.). These modest pH changes had only a slight effect on the maximum rate of the reaction for all four bacterial PDC polypeptides.
# [3] = target: T3, Zymomonas mobilis pyruvate decarboxylase (ZmoPDC), recombinant, wild type, SEQ ID NO:8 (Zymomonas mobilis, UniProt P06672)
# T3 construct: coupled test with yeast ADH
# Experimental: All procedures were performed at room temperature and all purification buffers contained 1 mM TPP and 1 mM MgCl2 unless otherwise indicated. S. ventriculi PDC was purified from recombinant E. coli BL21-CodonPlus-RIL(pJAM419) and Rosetta (DE3)(pRARE, pJAM419) as previously described (45). Z. mobilis PDC was purified from recombinant E. coli DH5α (pLOI276) (11) using thermal treatment, Q-Sepharose, and Superdex 200 procedures as described below for the Z. palmae PDC with the exception that the Z. mobilis PDC was eluted from Q-Sepharose at 0.22 to 0.32 M NaCl.
# as §2, §1
# [4] = target: T4, Sarcina ventriculi pyruvate decarboxylase (SvePDC), recombinant, wild type, SEQ ID NO:6 (Sarcina ventriculi, UniProt Q93EN4)
# T4 construct: coupled test with yeast ADH
# T4 sequence (Q93EN4 1-552): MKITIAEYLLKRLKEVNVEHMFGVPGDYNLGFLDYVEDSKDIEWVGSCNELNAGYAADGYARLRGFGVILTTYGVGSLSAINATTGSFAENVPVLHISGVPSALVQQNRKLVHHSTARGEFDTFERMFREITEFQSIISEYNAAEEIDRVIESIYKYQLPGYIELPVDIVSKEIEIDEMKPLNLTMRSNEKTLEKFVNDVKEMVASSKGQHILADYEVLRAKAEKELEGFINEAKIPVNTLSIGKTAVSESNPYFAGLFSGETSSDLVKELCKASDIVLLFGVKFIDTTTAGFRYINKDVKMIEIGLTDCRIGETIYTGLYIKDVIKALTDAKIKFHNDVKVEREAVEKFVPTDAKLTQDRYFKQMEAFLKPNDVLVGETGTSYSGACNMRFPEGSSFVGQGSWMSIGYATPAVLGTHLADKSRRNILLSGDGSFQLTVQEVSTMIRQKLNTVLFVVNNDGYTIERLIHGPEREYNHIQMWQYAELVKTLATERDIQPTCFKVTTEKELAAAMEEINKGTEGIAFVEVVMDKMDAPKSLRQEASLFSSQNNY
compound,measurement,setting,value
CC(=O)C(=O)O [pyruvate],Vmax (pH),"[1]; pH 6.0, 25° C.",130 (6.0)
same,Vmax (pH),[1]; pH 7.0,140 (7.0)
same,increase in Km when shifted from pH optimum to neutral conditions,[2],over 13 fold
same,Vmax (pH),"[2]; pH 5.0, 25° C.",97 (5.0)
same,Vmax (pH),[2]; pH 7.0,79 (7.0)
same,Vmax (pH),[3]; pH 6.0,100 (6.0)
same,Vmax (pH),[3]; pH 7.0,78 (7.0)
same,Vmax (pH),"[4]; pH 6.5, sigmoidal kinetics",45 (6.5)
same,Vmax (pH),"[4]; pH 7.0, sigmoidal kinetics",35 (7.0)
